The supplement of paper PMC12823440, “Inhibitors supercharge kinase turnover through native proteolytic circuits” (Nature, 2025)
Counter-ions that a name gives are not always drawn. Some of the results follow. The calls rarely recur for the same compound in another form.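 Kinases, fused to nanoluciferase, were expressed in K562 cells; luminescence was measured every 4 h from 2 to 18 h as percent of control (DMSO = 100%, positive control = 0%). A time point is decreased if signal falls significantly (2 sigma). Hits were called by the authors by a rule that is not shown; the count of time points alone does not decide it.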

Sequences of proteins named here, by UniProt entry; tags and fusion partners are left off. A change or cut given only in a name is not applied to a line headed by its entry.
UniProt Q15303, whole entry R711C: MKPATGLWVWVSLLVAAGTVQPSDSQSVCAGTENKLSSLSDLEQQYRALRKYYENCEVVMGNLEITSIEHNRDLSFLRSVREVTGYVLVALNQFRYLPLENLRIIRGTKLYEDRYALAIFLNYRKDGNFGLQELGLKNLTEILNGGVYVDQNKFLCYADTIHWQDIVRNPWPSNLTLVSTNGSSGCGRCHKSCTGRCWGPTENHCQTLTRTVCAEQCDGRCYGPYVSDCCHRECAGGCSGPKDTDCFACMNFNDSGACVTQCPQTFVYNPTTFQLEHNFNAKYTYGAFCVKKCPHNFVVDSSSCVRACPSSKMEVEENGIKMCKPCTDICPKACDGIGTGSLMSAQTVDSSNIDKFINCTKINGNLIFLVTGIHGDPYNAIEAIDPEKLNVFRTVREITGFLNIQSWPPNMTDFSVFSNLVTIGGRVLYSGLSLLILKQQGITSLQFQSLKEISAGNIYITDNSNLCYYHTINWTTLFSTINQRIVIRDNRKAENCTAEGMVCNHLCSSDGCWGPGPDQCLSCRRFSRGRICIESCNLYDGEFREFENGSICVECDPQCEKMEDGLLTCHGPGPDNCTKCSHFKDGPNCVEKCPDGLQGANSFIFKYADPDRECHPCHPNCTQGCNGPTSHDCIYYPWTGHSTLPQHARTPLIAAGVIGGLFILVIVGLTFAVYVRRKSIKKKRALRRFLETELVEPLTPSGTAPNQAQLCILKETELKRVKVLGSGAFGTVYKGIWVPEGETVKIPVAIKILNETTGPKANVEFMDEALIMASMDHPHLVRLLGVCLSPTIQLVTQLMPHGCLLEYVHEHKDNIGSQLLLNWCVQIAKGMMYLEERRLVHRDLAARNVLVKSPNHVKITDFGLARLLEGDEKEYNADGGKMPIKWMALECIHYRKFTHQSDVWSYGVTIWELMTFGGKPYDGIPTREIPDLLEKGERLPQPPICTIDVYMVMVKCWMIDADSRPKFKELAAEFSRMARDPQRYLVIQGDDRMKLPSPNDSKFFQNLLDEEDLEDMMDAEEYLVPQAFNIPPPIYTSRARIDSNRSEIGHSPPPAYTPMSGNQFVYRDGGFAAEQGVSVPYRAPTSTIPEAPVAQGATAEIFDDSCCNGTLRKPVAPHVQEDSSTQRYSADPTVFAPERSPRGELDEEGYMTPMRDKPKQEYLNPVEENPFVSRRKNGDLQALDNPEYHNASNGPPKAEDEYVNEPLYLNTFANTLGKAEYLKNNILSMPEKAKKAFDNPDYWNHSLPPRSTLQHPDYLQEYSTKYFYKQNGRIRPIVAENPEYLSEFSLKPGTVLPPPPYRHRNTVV
UniProt P11362, whole entry, looked up: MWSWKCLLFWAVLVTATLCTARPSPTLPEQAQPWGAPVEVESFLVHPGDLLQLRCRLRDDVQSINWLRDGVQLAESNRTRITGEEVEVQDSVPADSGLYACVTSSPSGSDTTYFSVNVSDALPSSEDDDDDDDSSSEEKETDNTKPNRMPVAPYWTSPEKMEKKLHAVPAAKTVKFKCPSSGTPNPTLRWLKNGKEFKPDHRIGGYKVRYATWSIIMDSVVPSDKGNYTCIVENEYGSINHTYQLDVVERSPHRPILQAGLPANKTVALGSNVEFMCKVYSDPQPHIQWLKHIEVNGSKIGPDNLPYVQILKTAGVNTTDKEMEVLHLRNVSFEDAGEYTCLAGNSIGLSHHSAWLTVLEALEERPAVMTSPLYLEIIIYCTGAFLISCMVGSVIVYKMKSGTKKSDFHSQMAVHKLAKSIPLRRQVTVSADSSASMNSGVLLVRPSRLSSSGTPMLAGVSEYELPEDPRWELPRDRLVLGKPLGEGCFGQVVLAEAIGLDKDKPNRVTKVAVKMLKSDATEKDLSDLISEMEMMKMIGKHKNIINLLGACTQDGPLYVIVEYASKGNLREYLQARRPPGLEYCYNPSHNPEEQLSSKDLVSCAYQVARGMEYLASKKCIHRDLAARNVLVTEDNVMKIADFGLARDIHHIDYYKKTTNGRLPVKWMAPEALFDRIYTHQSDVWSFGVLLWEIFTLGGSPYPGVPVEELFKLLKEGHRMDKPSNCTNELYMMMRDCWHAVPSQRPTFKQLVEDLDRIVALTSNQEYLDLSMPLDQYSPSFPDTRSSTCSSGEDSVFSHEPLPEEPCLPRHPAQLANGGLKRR
UniProt P21802, whole entry, looked up: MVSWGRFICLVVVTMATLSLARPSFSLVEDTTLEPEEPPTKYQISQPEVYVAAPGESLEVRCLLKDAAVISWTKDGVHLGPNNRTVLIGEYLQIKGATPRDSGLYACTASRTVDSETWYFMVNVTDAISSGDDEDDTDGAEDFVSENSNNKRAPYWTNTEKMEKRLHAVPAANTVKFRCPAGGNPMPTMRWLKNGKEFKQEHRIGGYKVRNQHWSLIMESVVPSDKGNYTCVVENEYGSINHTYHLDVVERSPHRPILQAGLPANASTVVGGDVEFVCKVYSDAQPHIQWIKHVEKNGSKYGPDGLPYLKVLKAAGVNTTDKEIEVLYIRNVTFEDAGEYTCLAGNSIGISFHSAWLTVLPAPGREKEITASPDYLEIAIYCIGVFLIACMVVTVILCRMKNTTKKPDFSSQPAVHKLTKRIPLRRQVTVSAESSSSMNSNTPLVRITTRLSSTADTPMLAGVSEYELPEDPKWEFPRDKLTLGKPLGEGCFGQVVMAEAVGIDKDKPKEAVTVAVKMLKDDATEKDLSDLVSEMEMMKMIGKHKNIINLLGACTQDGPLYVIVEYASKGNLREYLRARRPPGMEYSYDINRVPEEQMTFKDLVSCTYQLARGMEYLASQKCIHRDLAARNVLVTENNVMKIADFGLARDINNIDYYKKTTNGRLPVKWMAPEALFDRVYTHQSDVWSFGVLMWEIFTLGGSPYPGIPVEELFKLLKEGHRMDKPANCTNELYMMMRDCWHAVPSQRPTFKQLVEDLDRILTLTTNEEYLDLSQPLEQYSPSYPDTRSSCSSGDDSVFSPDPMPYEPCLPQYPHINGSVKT
UniProt P36888, whole entry: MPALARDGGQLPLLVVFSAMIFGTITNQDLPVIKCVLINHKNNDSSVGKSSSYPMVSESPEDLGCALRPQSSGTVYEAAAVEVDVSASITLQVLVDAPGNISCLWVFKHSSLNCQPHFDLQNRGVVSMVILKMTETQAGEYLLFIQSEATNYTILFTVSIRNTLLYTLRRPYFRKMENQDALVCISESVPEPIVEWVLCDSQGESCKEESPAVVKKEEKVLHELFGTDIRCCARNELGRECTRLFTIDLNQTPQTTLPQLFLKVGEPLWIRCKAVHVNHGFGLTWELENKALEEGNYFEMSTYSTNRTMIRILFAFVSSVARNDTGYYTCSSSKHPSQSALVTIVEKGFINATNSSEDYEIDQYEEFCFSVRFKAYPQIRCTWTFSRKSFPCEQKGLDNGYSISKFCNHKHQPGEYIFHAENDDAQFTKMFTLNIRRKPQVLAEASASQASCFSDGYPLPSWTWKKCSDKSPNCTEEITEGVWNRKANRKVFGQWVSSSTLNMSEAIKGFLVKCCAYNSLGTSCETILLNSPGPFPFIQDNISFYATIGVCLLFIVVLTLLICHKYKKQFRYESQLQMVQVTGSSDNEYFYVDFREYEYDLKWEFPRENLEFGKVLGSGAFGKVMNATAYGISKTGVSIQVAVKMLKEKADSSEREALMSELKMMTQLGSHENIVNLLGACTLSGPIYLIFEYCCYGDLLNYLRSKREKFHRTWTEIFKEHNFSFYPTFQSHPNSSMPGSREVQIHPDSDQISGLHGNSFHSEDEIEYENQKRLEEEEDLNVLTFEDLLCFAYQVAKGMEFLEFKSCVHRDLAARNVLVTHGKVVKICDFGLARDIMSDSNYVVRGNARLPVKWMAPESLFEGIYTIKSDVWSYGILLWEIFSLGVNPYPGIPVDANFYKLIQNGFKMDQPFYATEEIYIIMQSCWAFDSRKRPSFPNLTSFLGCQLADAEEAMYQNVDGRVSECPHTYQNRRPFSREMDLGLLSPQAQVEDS
UniProt P06241, whole entry, looked up: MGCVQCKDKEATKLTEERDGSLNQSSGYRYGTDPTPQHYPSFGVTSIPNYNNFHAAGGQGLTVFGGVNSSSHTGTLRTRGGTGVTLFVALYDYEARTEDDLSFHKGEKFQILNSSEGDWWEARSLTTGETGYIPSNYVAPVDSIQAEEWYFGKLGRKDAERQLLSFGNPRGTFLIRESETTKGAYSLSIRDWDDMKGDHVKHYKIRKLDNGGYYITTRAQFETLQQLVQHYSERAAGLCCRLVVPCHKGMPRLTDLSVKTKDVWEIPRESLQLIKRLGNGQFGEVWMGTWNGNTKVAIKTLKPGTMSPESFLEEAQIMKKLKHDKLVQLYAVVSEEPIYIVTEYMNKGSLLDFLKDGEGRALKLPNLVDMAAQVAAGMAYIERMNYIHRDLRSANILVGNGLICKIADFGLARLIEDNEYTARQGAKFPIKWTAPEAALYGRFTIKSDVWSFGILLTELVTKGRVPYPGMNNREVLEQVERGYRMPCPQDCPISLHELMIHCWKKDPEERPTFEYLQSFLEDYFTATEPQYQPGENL
UniProt P49840: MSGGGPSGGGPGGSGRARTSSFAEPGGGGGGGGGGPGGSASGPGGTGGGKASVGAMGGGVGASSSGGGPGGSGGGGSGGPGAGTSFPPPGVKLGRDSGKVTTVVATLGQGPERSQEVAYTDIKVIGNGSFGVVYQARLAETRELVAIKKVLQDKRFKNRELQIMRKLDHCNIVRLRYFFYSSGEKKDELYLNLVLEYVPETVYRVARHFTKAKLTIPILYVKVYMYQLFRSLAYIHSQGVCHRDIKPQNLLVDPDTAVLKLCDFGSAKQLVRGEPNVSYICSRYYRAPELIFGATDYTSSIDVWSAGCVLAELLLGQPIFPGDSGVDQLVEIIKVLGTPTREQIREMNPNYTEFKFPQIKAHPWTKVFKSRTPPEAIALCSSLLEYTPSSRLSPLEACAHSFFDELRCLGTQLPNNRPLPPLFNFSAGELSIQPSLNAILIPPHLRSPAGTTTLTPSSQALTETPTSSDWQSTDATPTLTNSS
UniProt P14616: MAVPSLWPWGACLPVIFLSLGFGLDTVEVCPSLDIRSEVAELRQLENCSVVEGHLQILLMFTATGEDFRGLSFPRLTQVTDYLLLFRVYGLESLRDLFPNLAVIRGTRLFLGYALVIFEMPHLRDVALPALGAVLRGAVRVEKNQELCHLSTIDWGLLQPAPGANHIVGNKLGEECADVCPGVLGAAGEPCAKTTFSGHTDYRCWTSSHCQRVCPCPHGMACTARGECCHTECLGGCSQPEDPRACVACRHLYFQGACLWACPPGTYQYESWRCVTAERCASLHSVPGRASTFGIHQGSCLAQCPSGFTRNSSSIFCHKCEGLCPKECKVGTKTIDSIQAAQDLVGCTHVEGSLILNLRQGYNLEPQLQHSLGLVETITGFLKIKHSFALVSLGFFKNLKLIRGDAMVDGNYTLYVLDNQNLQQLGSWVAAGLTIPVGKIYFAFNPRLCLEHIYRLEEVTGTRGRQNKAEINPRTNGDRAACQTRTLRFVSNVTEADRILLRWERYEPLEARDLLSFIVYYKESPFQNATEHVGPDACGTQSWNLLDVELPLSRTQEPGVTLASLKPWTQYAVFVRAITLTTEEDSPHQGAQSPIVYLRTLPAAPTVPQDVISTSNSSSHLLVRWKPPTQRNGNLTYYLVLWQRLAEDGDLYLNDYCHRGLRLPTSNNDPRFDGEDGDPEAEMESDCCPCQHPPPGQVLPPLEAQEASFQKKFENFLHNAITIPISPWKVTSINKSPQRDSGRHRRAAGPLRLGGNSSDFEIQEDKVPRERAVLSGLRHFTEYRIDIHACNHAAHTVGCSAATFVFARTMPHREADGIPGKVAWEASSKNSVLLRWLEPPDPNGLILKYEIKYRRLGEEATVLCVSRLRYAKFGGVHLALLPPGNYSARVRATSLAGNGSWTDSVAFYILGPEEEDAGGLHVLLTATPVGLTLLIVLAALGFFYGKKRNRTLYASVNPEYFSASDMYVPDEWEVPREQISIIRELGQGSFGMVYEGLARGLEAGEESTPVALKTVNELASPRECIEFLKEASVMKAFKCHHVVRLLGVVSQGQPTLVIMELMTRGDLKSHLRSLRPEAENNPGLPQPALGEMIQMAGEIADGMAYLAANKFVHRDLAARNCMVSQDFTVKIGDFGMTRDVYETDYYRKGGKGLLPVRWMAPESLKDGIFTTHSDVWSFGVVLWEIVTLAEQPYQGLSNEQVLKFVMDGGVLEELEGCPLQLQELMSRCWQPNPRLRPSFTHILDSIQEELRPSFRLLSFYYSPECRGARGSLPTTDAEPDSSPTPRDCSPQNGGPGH

Experiments:
Assay in all cases: kinase-Nluc reporter destabilization hit call (1 = scored as downregulated) (binary); higher = compound decreases kinase abundance
Details in all cases: K562; 2-18 h
EPHA2 = EPHA2 (UniProt P29317)
ERBB3 = ERBB3 (UniProt P21860)
[1] = biological target: ERBB4_R711C (clone: ERBB4_mut) (UniProt Q15303)
ERN1 = ERN1 (UniProt O75460)
FGFR1 = FGFR1 (UniProt P11362)
FGFR2 = FGFR2 (UniProt P21802)
FGFR3 = FGFR3 (UniProt P22607)
FGR = FGR (UniProt P09769)
FLT3 = FLT3 (UniProt P36888)
FYN = FYN (UniProt P06241)
GSK3A = GSK3A (UniProt P49840)
HER2 = HER2 (UniProt P04626)
INSRR = INSRR (UniProt P14616)
EGFR = EGFR (UniProt P00533)
EGFR_G719S = EGFR_G719S (UniProt P00533)
EGFR_G719S_T790M = EGFR_G719S_T790M (UniProt P00533)
EGFR_L718V = EGFR_L718V (UniProt P00533)
EGFR_L858R = EGFR_L858R (UniProt P00533)
EGFR_L861Q = EGFR_L861Q (UniProt P00533)
EGFR_T790M = EGFR_T790M (UniProt P00533)

Measured: kinase-Nluc reporter destabilization hit call

N#CC(C#N)=Cc1ccc(O)c(O)c1 [Tyrphostin 23] (10 µM)
inactive: EPHA2 = 0 | ERBB3 = 0 | [1] 0 | ERN1 = 0 | FGFR1 = 0 | FGFR2 = 0 | FGFR3 = 0 | FGR 0 | FLT3 = 0 | FYN 0 | GSK3A 0 | HER2 = 0 | INSRR 0

CC(C)=CC[C@@H](OC(=O)CC(C)(C)O)C1=CC(=O)c2c(O)ccc(O)c2C1=O [β-Hydroxyisovalerylshikonin] (2.5 µM)
inactive: EGFR 0 | EGFR_G719S 0 | EGFR_G719S_T790M 0 | EGFR_L718V 0 | EGFR_L858R 0 | EGFR_L861Q 0 | EGFR_T790M 0 | EPHA2 = 0 | ERBB3 = 0 | [1] 0 | ERN1 = 0 | FGFR1 = 0 | FGFR2 = 0 | FGFR3 = 0 | FGR 0 | FLT3 = 0 | FYN 0 | GSK3A 0 | HER2 = 0 | INSRR 0

O=C(/C=C/c1ccccc1)OC[C@H]1O[C@@H](O[C@@H]2OC=C[C@H]3[C@H](O)[C@@H]4O[C@]4(CO)[C@@H]23)[C@H](O)[C@@H](O)[C@@H]1O [Picroside I] (10 µM)
inactive: EGFR 0 | EGFR_G719S 0 | EGFR_G719S_T790M 0 | EGFR_L718V 0 | EGFR_L858R 0 | EGFR_L861Q 0 | EGFR_T790M 0 | EPHA2 = 0 | ERBB3 = 0 | [1] 0 | ERN1 = 0 | FGFR1 = 0 | FGFR2 = 0 | FGFR3 = 0 | FGR 0 | FLT3 = 0 | FYN 0 | GSK3A 0 | HER2 = 0 | INSRR 0

O=C(O)c1nn(Cc2ccc(Cl)cc2Cl)c2ccccc12 [Lonidamine] (10 µM)
inactive: EGFR 0 | EGFR_G719S 0 | EGFR_G719S_T790M 0 | EGFR_L718V 0 | EGFR_L858R 0 | EGFR_L861Q 0 | EGFR_T790M 0 | EPHA2 = 0 | ERBB3 = 0 | [1] 0 | ERN1 = 0 | FGFR1 = 0 | FGFR2 = 0 | FGFR3 = 0 | FGR 0 | FLT3 = 0 | FYN 0 | GSK3A 0 | HER2 = 0 | INSRR 0

CC1C(=O)OC2C(O)C34C5OC(=O)C3(OC3OC(=O)C(O)C34C(C(C)(C)C)C5O)C12O (stereo not drawn) [Ginkgolide C] (10 µM)
inactive: EGFR 0 | EGFR_G719S 0 | EGFR_G719S_T790M 0 | EGFR_L718V 0 | EGFR_L858R 0 | EGFR_L861Q 0 | EGFR_T790M 0 | EPHA2 = 0 | ERBB3 = 0 | [1] 0 | ERN1 = 0 | FGFR1 = 0 | FGFR2 = 0 | FGFR3 = 0 | FGR 0 | FLT3 = 0 | FYN 0 | GSK3A 0 | HER2 = 0 | INSRR 0

C[C@H](CCC(=O)O)C[C@H](C)C[C@H](C)C(=O)/C=C(\O)[C@H](C)C[C@H](C)C/C=C/[C@@H](C)[C@@H](O)[C@@H](C)[C@@H](O)C[C@@H]1CC[C@@](C)([C@H]2CC[C@@](C)([C@@H](C)O)O2)O1 [Ionomycin (calcium)] (2.5 µM)
inactive: EGFR 0 | EGFR_G719S 0 | EGFR_G719S_T790M 0 | EGFR_L718V 0 | EGFR_L858R 0 | EGFR_L861Q 0 | EGFR_T790M 0 | ERBB3 = 0 | [1] 0 | ERN1 = 0 | FGFR1 = 0 | FGFR2 = 0 | FGFR3 = 0 | FGR 0 | FLT3 = 0 | FYN 0 | GSK3A 0 | HER2 = 0 | INSRR 0
active: EPHA2 = 1

O=C1C=CC[C@@H]2[C@H]3CCCN4CCC[C@@H](CN12)[C@@H]34 [Sophocarpine] (10 µM)
inactive: EGFR 0 | EGFR_G719S 0 | EGFR_G719S_T790M 0 | EGFR_L718V 0 | EGFR_L858R 0 | EGFR_L861Q 0 | EGFR_T790M 0 | EPHA2 = 0 | ERBB3 = 0 | [1] 0 | ERN1 = 0 | FGFR1 = 0 | FGFR2 = 0 | FGFR3 = 0 | FGR 0 | FLT3 = 0 | FYN 0 | GSK3A 0 | HER2 = 0 | INSRR 0

Nc1ncnc2c1ncn2[C@@H]1O[C@@H]2COP(O)(=S)O[C@H]2[C@H]1O (stereo partly drawn) [Sp-cAMPS (sodium salt)] (10 µM)
inactive: EGFR 0 | EGFR_G719S 0 | EGFR_G719S_T790M 0 | EGFR_L718V 0 | EGFR_L858R 0 | EGFR_L861Q 0 | EGFR_T790M 0 | EPHA2 = 0 | ERBB3 = 0 | [1] 0 | ERN1 = 0 | FGFR1 = 0 | FGFR2 = 0 | FGFR3 = 0 | FGR 0 | FLT3 = 0 | FYN 0 | GSK3A 0 | HER2 = 0 | INSRR 0

CCCS(=O)(=O)Nc1ccc(F)c(-n2cc(-c3cncnc3)c3nc(N(C)C4CCN(CC)CC4)ccc32)c1F (2 µM)
inactive: EGFR 0 | EGFR_G719S 0 | EGFR_G719S_T790M 0 | EGFR_L718V 0 | EGFR_L858R 0 | EGFR_L861Q 0 | EGFR_T790M 0 | EPHA2 = 0 | ERBB3 = 0 | [1] 0 | ERN1 = 0 | FGFR1 = 0 | FGFR2 = 0 | FGFR3 = 0 | FGR 0 | FLT3 = 0 | FYN 0 | GSK3A 0 | HER2 = 0 | INSRR 0

NCCc1cn(S(=O)(=O)c2c(Cl)nc3sccn23)c2ccccc12 (10 µM)
inactive: EGFR 0 | EGFR_G719S 0 | EGFR_G719S_T790M 0 | EGFR_L718V 0 | EGFR_L858R 0 | EGFR_L861Q 0 | EGFR_T790M 0 | EPHA2 = 0 | ERBB3 = 0 | [1] 0 | ERN1 = 0 | FGFR1 = 0 | FGFR2 = 0 | FGFR3 = 0 | FGR 0 | FLT3 = 0 | FYN 0 | GSK3A 0 | HER2 = 0 | INSRR 0

Copied from the results shown (2 entries):
C[C@H](CCC(=O)O)C[C@H](C)C[C@H](C)C(=O)/C=C(\O)[C@H](C)C[C@H](C)C/C=C/[C@@H](C)[C@@H](O)[C@@H](C)[C@@H](O)C[C@@H]1CC[C@@](C)([C@H]2CC[C@@](C)([C@@H](C)O)O2)O1 [Ionomycin (calcium)] (2.5 µM)
inactive: EGFR 0 | EGFR_G719S 0 | EGFR_G719S_T790M 0 | EGFR_L718V 0 | EGFR_L858R 0 | EGFR_L861Q 0 | EGFR_T790M 0 | ERBB3 = 0 | [1] 0 | ERN1 = 0 | FGFR1 = 0 | FGFR2 = 0 | FGFR3 = 0 | FGR 0 | FLT3 = 0 | FYN 0 | GSK3A 0 | HER2 = 0 | INSRR 0
active: EPHA2 = 1

O=C1C=CC[C@@H]2[C@H]3CCCN4CCC[C@@H](CN12)[C@@H]34 [Sophocarpine] (10 µM)
inactive: EGFR 0 | EGFR_G719S 0 | EGFR_G719S_T790M 0 | EGFR_L718V 0 | EGFR_L858R 0 | EGFR_L861Q 0 | EGFR_T790M 0 | EPHA2 = 0 | ERBB3 = 0 | [1] 0 | ERN1 = 0 | FGFR1 = 0 | FGFR2 = 0 | FGFR3 = 0 | FGR 0 | FLT3 = 0 | FYN 0 | GSK3A 0 | HER2 = 0 | INSRR 0

Remaining list, next part:

O=C(N[C@@H](COc1ccc2[nH]c(=O)[nH]c2c1)c1ccccc1)c1cccn(Cc2ccc(F)c(F)c2)c1=O (2.5 µM)
inactive: EGFR 0 | EGFR_G719S 0 | EGFR_G719S_T790M 0 | EGFR_L718V 0 | EGFR_L858R 0 | EGFR_L861Q 0 | EGFR_T790M 0 | EPHA2 = 0 | ERBB3 = 0 | [1] 0 | ERN1 = 0 | FGFR1 = 0 | FGFR2 = 0 | FGFR3 = 0 | FGR 0 | FLT3 = 0 | FYN 0 | GSK3A 0 | HER2 = 0 | INSRR 0

O=C1C=CC[C@@H]2[C@H]3CCCN4CCC[C@@H](CN12)[C@@H]34 [Sophocarpine (monohydrate)] (2.5 µM)
inactive: EGFR 0 | EGFR_G719S 0 | EGFR_G719S_T790M 0 | EGFR_L718V 0 | EGFR_L858R 0 | EGFR_L861Q 0 | EGFR_T790M 0 | EPHA2 = 0 | ERBB3 = 0 | [1] 0 | ERN1 = 0 | FGFR1 = 0 | FGFR2 = 0 | FGFR3 = 0 | FGR 0 | FLT3 = 0 | FYN 0 | GSK3A 0 | HER2 = 0 | INSRR 0

COc1ccc2c(c1OC)C(OC)N(C)c1c-2ccc2cc3c(cc12)OCO3 (stereo not drawn) [Angoline] (10 µM)
inactive: EGFR 0 | EGFR_G719S 0 | EGFR_G719S_T790M 0 | EGFR_L718V 0 | EGFR_L858R 0 | EGFR_L861Q 0 | EGFR_T790M 0 | EPHA2 = 0 | ERBB3 = 0 | [1] 0 | ERN1 = 0 | FGFR1 = 0 | FGFR2 = 0 | FGFR3 = 0 | FGR 0 | FLT3 = 0 | FYN 0 | GSK3A 0 | HER2 = 0 | INSRR 0

C[S+]([O-])/C=C/CCN=C=S (stereo not drawn) [Sulforaphene] (10 µM)
inactive: EGFR 0 | EGFR_G719S 0 | EGFR_G719S_T790M 0 | EGFR_L718V 0 | EGFR_L858R 0 | EGFR_L861Q 0 | EGFR_T790M 0 | EPHA2 = 0 | ERBB3 = 0 | [1] 0 | ERN1 = 0 | FGFR1 = 0 | FGFR2 = 0 | FGFR3 = 0 | FGR 0 | FLT3 = 0 | FYN 0 | GSK3A 0 | HER2 = 0 | INSRR 0
